From patent US5674840A (Gruppo Lepetit SpA, priority 1993, dated 1997)

Experiment: general procedure: solution-phase peptide synthesis; N-hydroxysuccinimide active esters; N-hydroxybenzotriazole hydrate
Conditions: coupling step, trifluoroacetate, hydrochloride, free base

## (L-phenylalanyl)^3 -[N^α,N^δ -di-(t-BOC)-D-lysyl]^15 -ATDH methyl ester
  crude HPLC purity: titre about 45%
